The subject of this series is mouse primary hepatocyte 3D liver spheroids. To be noted: 8 days repeated vs 48 h single. Here is the method: To avoid increased evaporation, a humidified lid (Labcyte, USA), filled with PBS, was placed on each plate. […] From day 4 on, 50% of the medium was replaced daily with serum-free maintenance medium (WME with Cell Maintenance Supplement Pack (Thermo Fisher Scientific, USA)).
Compounds were obtained from Sigma-Aldrich if not otherwise stated. […] Toxicity treatment started on day 7 with re-dosing every second day. On the first day of exposure, 50 μl of the cell culture media was removed and 50 μl of fresh cell culture media containing the compound solution was added to the well to achieve the desired concentration. For redosing, 50 μl of cell culture media was replaced with fresh compound-containing cell culture media. […] The dose-response curves were plotted, and IC50 values were calculated using Graph-Pad Prism.
Drug-induced liver injury (DILI) is a major concern in drug development, which often cannot be predicted in vitro due to inherent limitations of 2D hepatocyte cultures, including short-term viability and decreased functionality. […] The spheroids either experienced a single treatment and were analyzed after 48 hours (Fig 3A–3G, 48 h), or they were repeatedly treated every 2 days and analyzed at day 8 (Fig 3A–3G, 8 days). In both cases, ATP content was used as a viability marker.
With `O=P1(N(CCCl)CCCl)NCCCO1` (stereo not drawn) [Cyclophosphamide], the “IC50 lower upon repeated treatments as compared to single treatments” value is given as 10 fold. `O=C(O)Cc1ccccc1Nc1c(Cl)cccc1Cl` [Diclofenac]: the “IC50 lower upon repeated treatments as compared to single treatments” value stood at 10 fold. The result for `CN(C)[C@@H]1C(O)=C(C(N)=O)C(=O)[C@@]2(O)C(O)=C3C(=O)c4c(O)cccc4[C@@](C)(O)[C@H]3C[C@@H]12` [Tetracycline] reads 10 fold.

Values taken from article PMC7347206, “Characterization of a long-term mouse primary liver 3D tissue model recapitulating innate-immune responses and drug-induced liver toxicity” (PLoS ONE, 2020).
